In publication PMC5122387 (2016):
For at least one entry, the source does not settle the construct or the ends of the probe. At least one result comes from cells or an extract, where the contact may be indirect.

Amino acid sequences for entries named in this document (tags omitted). A change or cut given only in a name is not applied to a line headed by its entry.
UniProt P15941: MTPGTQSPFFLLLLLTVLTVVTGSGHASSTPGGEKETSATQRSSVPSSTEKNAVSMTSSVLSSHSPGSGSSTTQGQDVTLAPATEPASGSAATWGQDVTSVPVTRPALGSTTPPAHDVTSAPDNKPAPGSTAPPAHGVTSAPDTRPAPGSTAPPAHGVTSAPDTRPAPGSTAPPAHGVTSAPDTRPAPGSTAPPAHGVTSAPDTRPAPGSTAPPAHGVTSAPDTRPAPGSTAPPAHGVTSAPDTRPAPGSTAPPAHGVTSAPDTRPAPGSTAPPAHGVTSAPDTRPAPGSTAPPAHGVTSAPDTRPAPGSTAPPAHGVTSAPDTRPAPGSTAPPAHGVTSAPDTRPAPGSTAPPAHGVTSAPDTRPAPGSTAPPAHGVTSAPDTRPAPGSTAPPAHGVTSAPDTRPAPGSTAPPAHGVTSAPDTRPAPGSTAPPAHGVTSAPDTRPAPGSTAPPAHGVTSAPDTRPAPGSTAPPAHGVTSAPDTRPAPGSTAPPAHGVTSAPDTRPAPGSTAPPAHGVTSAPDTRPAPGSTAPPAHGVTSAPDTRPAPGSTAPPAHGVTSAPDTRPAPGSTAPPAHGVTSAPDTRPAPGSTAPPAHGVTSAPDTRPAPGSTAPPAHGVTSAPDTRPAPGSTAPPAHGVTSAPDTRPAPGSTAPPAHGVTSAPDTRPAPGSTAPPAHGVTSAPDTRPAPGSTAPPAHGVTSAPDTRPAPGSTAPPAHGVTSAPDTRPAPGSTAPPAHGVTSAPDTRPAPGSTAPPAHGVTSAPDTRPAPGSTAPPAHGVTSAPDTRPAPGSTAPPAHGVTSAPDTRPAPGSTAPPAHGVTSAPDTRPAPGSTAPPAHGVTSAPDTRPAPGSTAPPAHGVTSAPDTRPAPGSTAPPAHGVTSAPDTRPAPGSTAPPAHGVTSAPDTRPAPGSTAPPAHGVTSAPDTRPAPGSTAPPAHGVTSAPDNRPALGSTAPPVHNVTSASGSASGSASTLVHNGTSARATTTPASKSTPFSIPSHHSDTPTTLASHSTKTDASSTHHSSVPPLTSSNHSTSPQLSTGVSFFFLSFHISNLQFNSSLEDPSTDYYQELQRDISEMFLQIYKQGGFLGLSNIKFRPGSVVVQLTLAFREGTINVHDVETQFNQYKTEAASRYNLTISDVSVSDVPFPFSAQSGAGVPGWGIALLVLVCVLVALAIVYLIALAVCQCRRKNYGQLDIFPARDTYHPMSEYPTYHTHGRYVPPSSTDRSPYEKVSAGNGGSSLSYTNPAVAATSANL

Target: Mucin 1 (MUC1), on MUC1-positive cells (UniProt P15941)
Experiment: flow cytometry
Conditions: 300 nM DNA, 30 min, Flow cytometry on intact cells in 200 ul PBS, 300 nM FAM-labelled DNA, two washes in Hanks buffer, temperature and pH not given, protein on the cell surface

Row | Sequence | binding result (MUC1-positive cells (MCF-7, A549, HT-29), strong versus MUC1-negative cells, label: 5'-FAM, single-stranded DNA) | binding result (preferential binding to MUC1-positive MCF-7 cells, folded or branched DNA)
1 | TTCCCTTCCTTCTCTCTTCCTCTCTCGCAGTTGATCCTTTGGATACCCTG [Apt-tail] | binds | –
2 | TTCCCTTCCTTCTCTCTTCCTCTCTCGCAGTTGATCCTTTGGATACCCTG / AGGAAGAGAGAAGGAAGGGAATTTTTACATTCCTAAGTCTGAAACATTACAGCTTGCTACACGAGAAGAGCCGCCATAGTA / TATCACCAGGCAGTTGACAGTGTAGCAAGCTGTAATAGATGCGAGGGTCCAATAC / TCAACTGCCTGGTGATAAAACGACACTACGTGGGAATCTACTATGGCGGCTCTTC / TTCAGACTTAGGAATGTGCTTCCCACGTAGTGTCGTTTGTATTGGACCCTCGCAT [Apt-Td (aptamer-DNA tetrahedron)] | – | binds
